Assay results: PubChem BioAssay AID1347075 (National Center for Advancing Translational Sciences (NCATS), 2019)
The campaign covered roughly 400,000 compounds. About 5,500 (1.4%) were called active. Inconclusive results, whose numbers are uncertain, are shown with a selection of clear calls. The call rests on the fitted dose curve; in most records, active means well fitted cell-killing curve with a large enough effect; inconclusive means small, poorly fitted or top-dose-only effect, or effect the other way; inactive means flat fitted curve, though single readings scatter. Potencies beside an inconclusive call are fits to weak or partial responses and may not hold up.

Assay: qHTS assay for MDR1-selective chemotherapeutics: Primary screen using the parental adenocarcinoma cell KB-3-1; further: nearly all actives have a fitted effect of over 60% in size
Settings: KB-3-1 viability, CellTiter-Glo ATP luminescence, 72 h; activity change, negative = cytotoxic: at 46.1 µM (top of the series)
In short: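 Luminescent ATP read-out (CellTiter-Glo) measures survival of drug-naive KB-3-1 cells after 72 h compound exposure at 37 °C. Titration series was screened from lowest to highest concentration, with DMSO vehicle plates as background controls.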
On the % scale 0 is the no-effect control and ±100 the full control effect; potency means the concentration at half of the fitted maximal effect.

SMILES | activity change, negative = cytotoxic | Potency
O=C(Nc1nc(-c2cc(F)ccc2F)cs1)C1=COCCO1 | inactive: -5.8% | 
Cc1sc2nc(CN3CCOCC3)[nH]c(=S)c2c1C |  | inconclusive: 29.1 µM [cytotoxic, single point]
CC(C)(C)c1ccc(/C=N/NC(=S)NC2CCCCC2)cc1 |  | inconclusive: 16.4 µM [cytotoxic, single point]
COc1cc(C#CC#CCN2CCCCC2)ccc1O | inactive: 0% | 
O[C@@H]1CN(CC2CCCCC2)[C@@H](c2ccccc2)C[C@H]1n1cc(-c2ccc(F)cc2)nn1 |  | active: 16.4 µM
FC(F)(F)c1nnc2c(Sc3ccc(Cl)cc3)nc3ccccc3n12 |  | active: 3.66 µM
CCc1nnc(NC(=O)CSc2ccc(-c3nc4ccc(C)cc4[nH]3)cn2)s1 | inactive: -7.66% | 
COc1cc(C#Cc2c(-c3cncn3C)n(C)c3ccc(-c4cnc(OC)nc4)cc23)cc(OC)c1 |  | inconclusive: 29.1 µM [cytotoxic, single point]
Nc1ccccc1C(=O)NCCCN1CCN(c2cccc(Cl)c2)CC1 |  | inconclusive: 0.0092 µM [rising, full curve, poor fit]
Cc1onc(-c2ccccc2)c1C(=O)NC(=S)NNC(=O)c1ccc(O)cc1 |  | inconclusive: 23.1 µM [cytotoxic, single point]
CCOc1ccc(C(O)(c2ccccc2OC)C(CN2CCCC2)c2ccccc2)cc1 (stereo unspecified) |  | inconclusive: 29.1 µM [cytotoxic, single point]
COCCNC(=O)C1CCCN(C(=O)/C=C/c2ccccc2)CC1 (stereo unspecified) | inactive: 0% | 
CC1(C(=O)Nc2ccc3c(c2)OCO3)Cc2c(-c3ccc4c(c3)OCO4)ccnc2O1 (stereo unspecified) |  | active: 5.17 µM
COc1ccc(Nc2nc(N)c(C(=O)c3ccc(OC)cc3)s2)cc1 |  | active: 1.3 µM
COc1cc2cc(C(c3nnnn3C3CCCCC3)N(C)C3CCCCC3)c(=O)[nH]c2cc1OC (stereo unspecified) |  | active: 20.6 µM
COc1cc(CNCCN(C)C)c(Br)cc1OC1CCCC1 |  | inconclusive: 29.1 µM [cytotoxic, single point]
CCOC(=O)N1CCC(NC(=O)c2cc(C)c3c(C)nn(-c4ccccc4)c3n2)CC1 |  | inconclusive: 1 µM [rising, full curve]
Cc1cc(C(=O)OCC(=O)NC(=O)C2CCCCC2)ccc1[N+](=O)[O-] | inactive: 6.05% | 
COCCn1c(=NC(=O)/C=C/c2ccccc2)sc2cc(NC(C)=O)ccc21 |  | inconclusive: 6.51 µM [rising, partial curve, poor fit]
Cc1ccc2c(c1)c1c(n2CC(O)CN2CCCCC2C)CCCC1 (stereo unspecified) |  | inconclusive: 29.1 µM [cytotoxic, single point]
COc1cccc(NC(=O)c2nnn(CCc3ccccc3)c2N)c1 |  | inconclusive: 29.1 µM [cytotoxic, single point]
Cc1ccc(-c2nc(N)sc2-c2ccc(C)cc2)cc1 |  | inconclusive: 29.1 µM [cytotoxic, single point]
S=C(NCc1ccco1)N1CCN(c2ccccn2)CC1 | inactive: 8.14% | 
N#CC1=C2N=C(N)c3c(sc4c3CCCCC4)N2C2=C(C(=O)CCC2)C1c1ccccc1 (stereo unspecified) |  | inconclusive: 23.1 µM [rising, single point]
Cc1csc2nc(COC(=O)c3ccc(F)cc3)cc(=O)n12 |  | inconclusive: 29.1 µM [cytotoxic, single point]

SMILES | activity change, negative = cytotoxic | Potency
COc1cc2ccccc2cc1C(=O)N1CC(C)OC(C)C1 (stereo unspecified) | inactive: -1.75% | 
COc1cccc(C(=O)NC(=S)Nc2ccc3c4c(cccc24)CC3)c1 | inconclusive: -34.8% [cytotoxic] | 
CCCCOc1c(Cl)cc(C(=O)N(Cc2ccc(C)o2)C2CCS(=O)(=O)C2)cc1Cl (stereo unspecified) |  | inconclusive: 25.9 µM [cytotoxic, partial curve]
CCC1=NN(C(=O)c2ccccc2O)C(O)(c2ccccc2)C1 (stereo unspecified) |  | inconclusive: 29.1 µM [cytotoxic, single point]
CN(C)CCCN(C(=O)CCSc1ccccc1)c1nc2cc3c(cc2s1)OCO3 |  | inconclusive: 29.1 µM [cytotoxic, single point]
CN(C(=O)c1cc(-c2ccccc2O)on1)c1ccccc1 | inconclusive: -34.9% | 
C[C@H](NC(=O)c1ccc(C(C)(C)C)cc1)C(=O)N1CCN(C/C=C/c2ccccc2)CC1 |  | inconclusive: 20.6 µM [cytotoxic, single point]
CSc1ccc(CCNc2ncnc3onc(C)c23)cc1 |  | inconclusive: 0.517 µM [cytotoxic, full curve, poor fit]
CCN(CC)CCn1c2c(c(SCC(=O)Nc3ccc(C)c(F)c3)nc1=O)CCCC2 |  | inconclusive: 5.8 µM [cytotoxic, partial curve, poor fit]
COC(=O)C1=CN(c2ccc3c(c2)OCO3)C(N)=C(C#N)C1c1cccc(F)c1 (stereo unspecified) |  | active: 2.31 µM
Cc1ccc(NC(=O)CN(C)C(=O)C2CSC3(C)CCC(=O)N23)cc1 (stereo unspecified) | inactive: -0.703% | 
Cc1cc(C(=O)Cn2cnc3ccc(Cl)cc3c2=O)c(C)n1C1CC1 | inactive: 9.78% | 
CCOc1ccc(/C=C(\C#N)c2nc(-c3cc4ccccc4oc3=O)cs2)c(OCC)c1 | inactive: 4.96% | 
c1ccc(-c2nc(NCC3CCCO3)c3ccccc3n2)nc1 (stereo unspecified) |  | inconclusive: 12.6 µM [cytotoxic, partial curve, poor fit]
O=C(c1ccccc1)c1ccc(OCC(O)CN2CCN(S(=O)(=O)N3CCCCC3)CC2)cc1 (stereo unspecified) |  | active: 23.1 µM
NC(=O)N/N=C/C=C/c1ccc(F)cc1 | inactive: 7.42% | 
O=C(Nc1sc2c(c1C(=O)O)CCCC2)c1ccccc1Cl |  | inconclusive: 16.4 µM [cytotoxic, single point]
COc1ccccc1C/C(N)=N/OC(=O)c1ccco1 |  | inconclusive: 0.326 µM [rising, full curve]
CC(=O)N(c1cc(C)ccc1C)c1ccccc1[N+](=O)[O-] | inactive: -1.06% | 
COc1ccc2c(CNCc3ccc(C)o3)c(C(=O)O)n(Cc3ccccc3)c2c1 |  | inconclusive: 29.1 µM [cytotoxic, single point]
CN1OC(c2ccccc2)=C(CO)C1c1ccccc1 (stereo unspecified) | inconclusive: -24.9% | 
O=C(NCCc1cn2ccccc2n1)c1ccc(Br)o1 | inconclusive: -10.7% | 
COc1ccc(-n2sc3ccc(F)cc3c2=O)cc1 |  | inconclusive: 29.1 µM [cytotoxic, single point]
COc1ccc(-c2ccc3c(N)c(C(=O)NC(C)C)sc3n2)cc1OC |  | inconclusive: 29.1 µM [rising, single point]
O=C(Cn1cc(C(F)(F)F)ccc1=O)N/N=C/c1ccccc1O | inactive: -22.8% | 
COc1cc(OC)c(/C=C/c2cc[n+](C)c3ccccc23)c(OC)c1 |  | inconclusive: 3.26 µM [cytotoxic, partial curve, poor fit]

Quoted from the listing.
COc1cc2ccccc2cc1C(=O)N1CC(C)OC(C)C1 (stereo unspecified) | activity change, negative = cytotoxic: inactive: -1.75%
O=C(Nc1sc2c(c1C(=O)O)CCCC2)c1ccccc1Cl | Potency: inconclusive: 16.4 µM [cytotoxic, single point]
COC(=O)C1=CN(c2ccc3c(c2)OCO3)C(N)=C(C#N)C1c1cccc(F)c1 (stereo unspecified) | Potency: active: 2.31 µM

(cont.)

SMILES | activity change, negative = cytotoxic | Potency
CC1CC(C)(C)NC(=S)N1CCCC(=O)Nc1ccc(Cl)cc1 (stereo unspecified) | inactive: -2.63% | 
CSc1ccc(CN2CCC(CO)(Cc3ccc(Cl)cc3)CC2)cc1 |  | inconclusive: 20.6 µM [cytotoxic, partial curve]
Fc1ccc(CNCCC(Cc2ccccc2)c2ccco2)cc1 (stereo unspecified) |  | inconclusive: 29.1 µM [cytotoxic, partial curve, poor fit]
Cc1cccc(-n2ncc3c(NCCN4CCOCC4)ncnc32)c1 | inactive: 4.2% | 
O=C(CNC(=O)c1cc(Cl)cc([N+](=O)[O-])c1)NC1CC1 | inconclusive: 2.1% | 
Cc1cc(Cl)ccc1NC(=S)NCc1ccc(Cl)cc1 | inconclusive: -19.5% | 
CCOC(=O)c1noc2ncnc(N(CCC(=O)OC)c3ccccc3)c12 | inactive: 1.12% | 
C=CCNc1nc(C(=O)OCC(=O)c2ccc(Cl)cc2)cs1 | inactive: 0.662% | 
O=P(Cc1ccccc1)(c1ccccc1)c1ccccc1 | inactive: 13% | 
COc1ccc(OC)c(C2CC(=O)c3c([nH]c(C(=O)OC4CCC(C)CC4)c3C)C2)c1 (stereo unspecified) |  | inconclusive: 29.1 µM [cytotoxic, single point]
O=C(C[n+]1cc(-c2ccccc2)n2c1CCC2)Nc1nc(-c2ccc(F)cc2)cs1 |  | active: 20.6 µM
Cc1ccc2c(c1)nnn2C1CCN(S(=O)(=O)c2ccc(C(=O)N(C)C3CCCCC3)cc2)CC1 |  | inconclusive: 20.6 µM [cytotoxic, partial curve]
Cc1ccc(CNC(=O)c2ccc(CS(=O)Cc3ccccc3Cl)o2)cc1 (stereo unspecified) |  | inconclusive: 16.4 µM [cytotoxic, partial curve, poor fit]
COc1cccc(C(=O)NC2CCCc3c2cnn3-c2ccc(C)c(C)c2)c1OC (stereo unspecified) | inactive: -12.2% | 
CC(CC(=O)NCc1ccc(Cl)cc1)CC1=NS(=O)(=O)c2ccccc2N1 (stereo unspecified) | inactive: 4.95% | 
N#Cc1cc2c(=O)n3ccccc3nc2n(-c2ccc(Cl)cc2)c1=O | inactive: -7.08% | 
CCOc1ccccc1C=NNC(=O)C(=O)NN=Cc1ccccc1OCC | inactive: -0.736% | 
CCC(C)NC(=O)CCC(=O)Nc1ccc2nc(N3CCOCC3)cc(C)c2c1 (stereo unspecified) | inactive: -2.05% | 
CC1CCCC(=NNC(=O)C2COc3ccccc3O2)C1 (stereo unspecified) | inactive: -1.33% | 
COc1cc(Cl)c(C)cc1NC(=O)COC(=O)c1cc[n+]([O-])cc1 | inactive: 9.82% | 
CC(Cc1cccs1)NC(=O)Nc1ccc(Cl)c(Cl)c1 (stereo unspecified) |  | inconclusive: 23.1 µM [cytotoxic, single point]
N#Cc1c(NC(=O)CSc2nc(N)cc(=O)[nH]2)sc2c1CCCC2 |  | inconclusive: 20.6 µM [cytotoxic, single point]
Cc1nnc(N2CCCC(C(=O)NCc3cccc(F)c3)C2)c2nn(-c3ccccc3)c(C)c12 (stereo unspecified) |  | inconclusive: 29.1 µM [cytotoxic, single point]
COc1ccc(-c2nc(C(N)=O)c3[nH]c(=O)n(-c4ccccc4OC)c3n2)c(OC)c1 |  | inconclusive: 20.6 µM [cytotoxic, single point]
